The target of test [1] is T1, Ezrin-radixin-moesin (ERM)-binding phosphoprotein 50 (EBP50), endogenous in BPAEC (bovine (endogenous in BPAEC)) (UniProt Q3SZK8).
T1 sequence: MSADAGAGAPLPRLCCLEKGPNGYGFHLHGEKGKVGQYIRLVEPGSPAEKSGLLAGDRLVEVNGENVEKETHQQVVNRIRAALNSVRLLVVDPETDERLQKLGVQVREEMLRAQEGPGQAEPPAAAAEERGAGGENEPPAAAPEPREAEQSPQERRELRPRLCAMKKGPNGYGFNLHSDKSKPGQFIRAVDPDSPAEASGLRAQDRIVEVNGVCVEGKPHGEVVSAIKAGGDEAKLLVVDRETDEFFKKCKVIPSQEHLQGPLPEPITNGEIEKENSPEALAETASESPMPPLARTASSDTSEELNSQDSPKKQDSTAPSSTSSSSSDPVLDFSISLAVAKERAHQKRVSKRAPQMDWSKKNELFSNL
In words: co-IP; endogenous EBP50 immunoprecipitated with anti-EBP50 antibody and protein G Sepharose from lysates of asynchronized, thymidine (early S) or nocodazole (mitotic) treated BPAEC; IP buffer 20 mM Tris HCl pH 7.4, 150 mM NaCl, 2 mM EDTA, 2 mM sodium vanadate, 1% Nonidet P-40, 4°C; Western blot for phosphatase subunits.

By UniProt entry, the sequences of proteins in these tests, tags left out. Where a name states a change or a piece, a line headed by the entry shows the natural chain unless it says otherwise.
UniProt Q3T0E7: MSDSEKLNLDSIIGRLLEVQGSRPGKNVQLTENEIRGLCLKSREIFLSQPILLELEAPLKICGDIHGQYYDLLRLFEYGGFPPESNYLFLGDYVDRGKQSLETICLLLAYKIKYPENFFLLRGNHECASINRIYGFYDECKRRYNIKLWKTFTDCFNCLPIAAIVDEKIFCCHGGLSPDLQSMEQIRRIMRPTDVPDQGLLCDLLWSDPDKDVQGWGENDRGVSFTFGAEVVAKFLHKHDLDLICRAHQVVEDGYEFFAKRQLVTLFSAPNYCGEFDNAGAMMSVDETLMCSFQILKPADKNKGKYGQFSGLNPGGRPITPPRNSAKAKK
UniProt Q3SWW9: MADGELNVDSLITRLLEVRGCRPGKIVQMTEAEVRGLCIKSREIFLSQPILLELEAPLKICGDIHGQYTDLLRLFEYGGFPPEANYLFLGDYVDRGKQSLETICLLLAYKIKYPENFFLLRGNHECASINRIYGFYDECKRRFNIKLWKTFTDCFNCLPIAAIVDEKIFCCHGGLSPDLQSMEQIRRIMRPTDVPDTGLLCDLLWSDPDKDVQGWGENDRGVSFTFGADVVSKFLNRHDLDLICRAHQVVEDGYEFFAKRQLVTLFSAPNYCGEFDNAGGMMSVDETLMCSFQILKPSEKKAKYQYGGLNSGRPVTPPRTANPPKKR

The target of test [2] is T2, PP2A Bα–V5 (pcDNA3.1 V5-His PP2A Bα) (UniProt P63151).
T2 sequence: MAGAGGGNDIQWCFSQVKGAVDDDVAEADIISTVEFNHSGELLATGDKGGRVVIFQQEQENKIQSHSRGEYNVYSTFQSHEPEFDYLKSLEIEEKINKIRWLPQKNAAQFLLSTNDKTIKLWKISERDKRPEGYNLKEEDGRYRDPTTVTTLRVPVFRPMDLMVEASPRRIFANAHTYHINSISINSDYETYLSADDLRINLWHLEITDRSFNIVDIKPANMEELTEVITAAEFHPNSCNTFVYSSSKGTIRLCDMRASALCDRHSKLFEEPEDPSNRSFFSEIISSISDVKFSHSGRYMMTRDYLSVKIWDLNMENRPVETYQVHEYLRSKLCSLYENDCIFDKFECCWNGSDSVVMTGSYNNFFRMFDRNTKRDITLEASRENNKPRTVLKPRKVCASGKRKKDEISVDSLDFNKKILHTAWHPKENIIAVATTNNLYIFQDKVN
Put plainly: co-IP; lysates of BPAEC transfected with V5-tagged PP2A Bα or B′γ incubated with Anti-V5 Agarose Affinity Gel for 5 h at 4°C; washed with PBS, eluted by boiling in SDS buffer; Western blot for endogenous EBP50 and the V5 tag. (Immunoblotting shows a protein as a band on a membrane.)

The record followed here is PMC3327649.

Results are given in words; binding and its absence hold for the method and conditions named. Binding seen in cells or lysates may run through a third protein. Some results given as binding are weak or reduced against the parent protein; the word gives no strength. For part of these data: Sequences can lack the tags named with a protein.

As to “Protein phosphatase 1 catalytic subunit α isoform (PP1c α), endogenous in BPAEC (from UniProt Q3T0E7 1-330) (enzyme)”, the binding result in test [1] is reported as “no binding”.
For the molecule “Protein phosphatase 1 catalytic subunit δ isoform (PP1c δ), endogenous in BPAEC (from UniProt Q3SWW9 1-327) (enzyme)”, in test [1], the binding result is reported as “no binding”.

B1: Ezrin-radixin-moesin (ERM)-binding phosphoprotein 50 (EBP50), endogenous in BPAEC (protein, UniProt Q3SZK8 1-368)
chain: MSADAGAGAPLPRLCCLEKGPNGYGFHLHGEKGKVGQYIRLVEPGSPAEKSGLLAGDRLVEVNGENVEKETHQQVVNRIRAALNSVRLLVVDPETDERLQKLGVQVREEMLRAQEGPGQAEPPAAAAEERGAGGENEPPAAAPEPREAEQSPQERRELRPRLCAMKKGPNGYGFNLHSDKSKPGQFIRAVDPDSPAEASGLRAQDRIVEVNGVCVEGKPHGEVVSAIKAGGDEAKLLVVDRETDEFFKKCKVIPSQEHLQGPLPEPITNGEIEKENSPEALAETASESPMPPLARTASSDTSEELNSQDSPKKQDSTAPSSTSSSSSDPVLDFSISLAVAKERAHQKRVSKRAPQMDWSKKNELFSNL
Regarding B1, the binding result in test [2] is “binds”.
